The values that follow come from patent publication US12728170B2 (MC SAF, priority 2020, dated 2026).

The nature of data set [1]: general procedure: solution-phase peptide synthesis; HATU / 2,6-lutidine; EEDQ / DIPEA. Particulars: TFA salt; for step yield: late stage modification step; for conjugation yield: conjugation step.
The nature of data set [2]: Denaturing HRMS analysis according to method 2 (MAR per species). It is filed as physicochemical.

Take “MMAE 6-aminohexanamide-valine-citrulline-p-aminobenzoyl carbamate, salt of TFA”: in data set [1], the step yield is listed as 76%.

In the case of “MMAE amine 3-[2-(2-aminoethoxy)ethoxy]-propanamido-valine-citrulline-p-aminobenzoyl carbamate, TFA salt”, the conjugation yield in data set [1] came out at 45%.

As to “MMAE 4-methyleteatrazinylphenoxy-3,6,9,12-tetraoxapentadecan-15-amide-valine-citrulline-p-aminobenzoyl carbamate”, in data set [1], the conjugation yield was determined as 56%.

As to “Example 34: Panitumumab—Compound (36) Conjugate; bioconjugation reaction 1, reducing agent 1 (10.6 eq), compound (36) 18.0 eq”, in data set [2] (LH species), the “Average MAR, LH” value is recorded as 1.00. In data set [2] (LH species, MAR 1), the “Intensity (%) LH, MAR 1” value amounted to 100%. Moreover, in data set [2] (LHHL species), the “Average MAR, LHHL” value is reported as 0.98. In addition, the “Intensity (%) LHHL, MAR 0” value in data set [2] (LHHL species, MAR 0) is given as 2%. The “Intensity (%) LHHL, MAR 1” value in data set [2] (LHHL species, MAR 1) was 98%.

Turning to “MMAE 6-azidohexanamido-N-hexanamide-valine-citrulline-p-aminobenzoyl carbamate”, the step yield in data set [1] is 75%. “MMAE 3-(2,6-bis(bromomethyl)isonicotinamido)-2-((2,6bis(bromomethyl)isonicotinamido)methyl)propamido-N-hexanamide-valine-citrulline-p-aminobenzoyl carbamate”: the conjugation yield in data set [1] is on record as 63%.
